Literature values in patent US5744469A, “Method for treating dermatitis” (Eli Lilly and Company, priority 1996, dated 1998).

System: 5-HT1C receptor
Settings: in vitro; cited from earlier work

Cc1cc2c(s1)Nc1ccccc1N=C2N1CCN(C)CC1 [2-methyl-4-(4-methyl-1-piperazinyl)-10H-thieno[2,3-b][1,5]benzodiazepine]
activity at the 5-HT1C receptor: active
